The values that follow are results of earlier work, collected in patent US20100093662A1, “NOVEL AMPHIPHILIC CYCLODEXTRIN DERIVATIVES” (CENTRE NATIONAL DE LA RECHERCHE SCIENTIFIQUE-CNRS-, priority 2006, published 2010).

In brackets after ≈: the same amount, converted by molar mass.

The conditions of the series: at 25° C.; cited from earlier work.

Regarding `OC[C@H]1O[C@@H]2O[C@H]3[C@H](O)[C@@H](O)[C@@H](O[C@H]4[C@H](O)[C@@H](O)[C@@H](O[C@H]5[C@H](O)[C@@H](O)[C@@H](O[C@H]6[C@H](O)[C@@H](O)[C@@H](O[C@H]7[C@H](O)[C@@H](O)[C@@H](O[C@H]8[C@H](O)[C@@H](O)[C@@H](O[C@H]1[C@H](O)[C@H]2O)O[C@@H]8CO)O[C@@H]7CO)O[C@@H]6CO)O[C@@H]5CO)O[C@@H]4CO)O[C@@H]3CO` [beta-cyclodextrin], the solubility in water was 15 mM (≈ 17 mg/mL).
